SMILES strings stand for the structures.

This test concerns HDAC4. Put plainly: Nuclear export of Flag-HDAC4 in cardiomyocytes (NRVMs), immunofluorescence. The class given is cell-based, rat. Particulars: adenoviral Flag-HDAC4, inhibitor pretreatment 30 min, PE 4 hrs, Stauro 500 nmol/l, KN93 5 μmol/l, KN62 10 μmol/l, AIPII-2 500 nmol/l, Bis 2.5 μmol/l, Gö6976 200 nmol/l, H89 1 μmol/l. From the text:
Cardiomyocyte culture and adenoviral infection. NRVMs were isolated from 1-2 day Sprague Dawley rats. For adenovirus production, cDNAs encoding FLAG-tagged HDAC4 wild-type or a mutant containing alanines in place of serines 246, 467 and 632 (S/A) were subcloned into the pACCMV vector and co-transfected with pJM17 into 293 cells. Primary lysates were used to re-infect 293 cells and viral plaques were obtained using the agar overlay method. The production of adenoviral GFP-HDAC5 was described previously 18. NRVMs were infected 24 h after plating, starved for 4 h, and stimulated with PE or Iso for the indicated time period. In experiments with kinase inhibitors, NRVMs were pretreated with the inhibitor 30 min prior stimulation. For assessing cardiomyocyte hypertrophy, NRVMs were starved for 24 h and stimulated with PE for another 24 hrs. Subcellular localization of Flag-HDAC4 and cardiomyocyte hypertrophy, as assessed by sarcomeric organization, was determined by indirect immunofluorescence.
Indirect Immunofluorescence. COS cells were grown on glass coverslips, fixed in paraformaldehyde (4%), permeabilized in 0.1% Triton-X-100 and blocked in PBS containing goat serum (5%). Primary antibodies against FLAG (monoclonal or rabbit; Sigma), Myc (polyclonal, A-14; Santa Cruz), or HA (polyclonal, Y-11; Santa Cruz) were used at a dilution of 1:200. […]

For the compound `CN[C@@H]1C[C@H]2O[C@@](C)([C@@H]1OC)n1c3ccccc3c3c4c(c5c6ccccc6n2c5c31)C(=O)NC4` [staurosporine], the “Effect of kinase inhibitor on PE-induced nuclear export of HDAC4” value is given as “markedly reduced”. Besides, the “Effect of kinase inhibitor on PE-induced nuclear export of HDAC4” value (listed as Stauro) is on record as “effective in blocking”.
